No constants are given. Whether binding was seen depends on the method and setting. Binding can be weak; no strength is given. For some assays here: Sequences can lack the tags named with a protein. For some assays here: In cells and extracts the contact can be indirect.

Test [1] concerns the target T1, MdPR10-2-BK (apple (Malus x domestica cv. Hanfu)) (UniProt Q40280).
T1 sequence: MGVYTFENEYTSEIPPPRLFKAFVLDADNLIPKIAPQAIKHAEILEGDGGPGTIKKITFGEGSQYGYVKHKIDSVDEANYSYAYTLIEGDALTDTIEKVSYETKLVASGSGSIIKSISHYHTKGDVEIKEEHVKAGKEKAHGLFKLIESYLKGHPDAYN
The test is described as follows: two-hybrid; yeast strain AH109, pGADT7 and pGBKT7 fusions cotransformed; growth on synthetic dropout medium, X-α-gal staining, β-galactosidase activity; 30 °C.

Test [2] addresses T2, MdPR10-2-YFPn (apple (Malus x domestica cv. Hanfu)) (UniProt Q40280).
T2 sequence: T1 sequence
The test is described as follows: split reporter; BiFC with YFPn and YFPc fusions, transiently expressed in N. benthamiana epidermal cells by Agrobacterium tumefaciens; confocal microscopy.

Test [3] deals with MdRNL6-YFPn (apple (Malus x domestica)). Described as above.
For test [4], the target named is MdRNL6-3-YFPn (apple (Malus x domestica)). Described as above.
The target of test [5] is MdRNL6-3-BK (apple (Malus x domestica)). The test is described as follows: two-hybrid; yeast strain AH109, pGADT7 and pGBKT7 fusions cotransformed; growth on synthetic dropout medium, X-α-gal staining, β-galactosidase activity; 30 °C.
Test [6] has as its target MdRNL6-BK (apple (Malus x domestica)). The description is as above.

In the case of “MdRNL2-3-AD (apple (Malus x domestica)) (domain or fragment)”, in test [1], the binding result was “binds”.
Same read-out and setting: next, MdRNL2-AD (apple (Malus x domestica)): “binds”.
Turning to “MdRNL2-3-YFPc (apple (Malus x domestica)) (domain or fragment)”, the binding entry in test [2] was “binds”.
On the same count and under the same terms, the value for MdRNL2-YFPc (apple (Malus x domestica)) was “binds”.

B1: MdPR10-2-YFPc (protein, UniProt Q40280 1-159)
chain: T1 sequence
Take B1: the binding result in test [3] and in test [4] was “binds” throughout.

B2: MdPR10-2-AD (protein, UniProt Q40280 1-159)
chain: T1 sequence
With B2, the binding result in test [5] and in test [6] was “binds” each time.

These data come from paper PMC8484663.
